## Results of single-concentration screens

Sequences of proteins named here, by UniProt entry; tags and fusion partners are left off. Residues count along the entry.
UniProt Q4DA54, 1-478: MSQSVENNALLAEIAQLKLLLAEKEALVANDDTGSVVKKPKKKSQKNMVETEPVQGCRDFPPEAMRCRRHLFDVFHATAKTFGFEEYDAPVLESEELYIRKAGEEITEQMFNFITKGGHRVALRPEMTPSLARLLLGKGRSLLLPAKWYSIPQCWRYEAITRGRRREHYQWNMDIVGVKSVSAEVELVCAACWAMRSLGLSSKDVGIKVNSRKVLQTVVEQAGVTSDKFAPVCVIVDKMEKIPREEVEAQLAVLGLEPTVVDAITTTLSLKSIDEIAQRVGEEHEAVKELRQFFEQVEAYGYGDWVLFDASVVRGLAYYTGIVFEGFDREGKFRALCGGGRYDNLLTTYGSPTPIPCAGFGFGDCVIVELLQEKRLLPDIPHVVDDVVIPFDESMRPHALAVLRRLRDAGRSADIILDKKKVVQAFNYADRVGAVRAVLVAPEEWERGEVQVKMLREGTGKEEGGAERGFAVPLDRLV

Values are the deposited “Percent Effect”, in %.
The controls that fix the scale are not given in the record; negative values are as filed.
The compounds are a random part of those screened.

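Enzyme assay of histidyl-tRNA synthetase; the read-out is not stated. Target: Histidine-tRNA ligase, Trypanosoma cruzi CL Brener (UniProt Q4DA54). Tested at 30 µM. The record gives no direction; compounds that gave an IC50 in retests scored well above the rest, so higher reads as stronger inhibition. Size under these conditions: about 69,000 compounds, about 31 of them at 50% or above in at least one test.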

Compound,percent effect
O=C(NCCc1nncn1C1CC1)C1(c2ccccc2)CCC1,0%
CNC(=O)c1nc(Cn2ncc3ccccc3c2=O)no1,3.185%
O=C(Nc1cccnc1N1CCCC1)C1CCS(=O)(=O)C1 (centres undefined),6.34%
CN1CCC(N(Cc2ccncc2)Cc2nc3c(s2)CCCC3)CC1,8.808%
CC(C)(C)c1coc([C@@H]2COCCN2Cc2ccccc2)n1,2.488%
CCn1nnc2c1C(COCC(=O)N(C)C)CN(Cc1ccco1)C2 (centres undefined),2.222%
COCCN1CCN(Cc2csc(-c3cnn(C)c3)n2)CC1,1.183%
CCC(C)NC(=O)NCc1cc2n(n1)CCCN(C1CCCCC1)C2 (centres undefined),4.523%
O=S(=O)(Cc1ccccc1)NC[C@H]1Cn2ccnc2CO1,2.174%
Cc1nccn1-c1ccc(C(C)NCc2cccn2C)cc1 (centres undefined),6.404%
O=C1CC2(CCN(C(=O)c3ccccn3)CC2)Oc2c(Br)cc(Br)cc21,3.409%
CC(C)CCNC(=O)CCc1ccnc2ccccc12,1.961%
c1csc(-c2noc(CNC3CCc4ncnn4C3)n2)c1 (centres undefined),2.624%
CCC(=O)N1CCC(c2cncc(Oc3cccnc3)n2)CC1,4.444%
CN(C(=O)CCNC(=O)NC1CCCCC1)c1ccccc1,-1.087%
CC(C)c1cc(CN2CCN(c3cccnc3)CC2)n(C)n1,5.051%
CN(C)CCOCc1nnc2n1CCN(Cc1ccsc1)C2,9.195%
CC(C)Cn1ncc(C(=O)NS(=O)(=O)c2ccccc2)c1C1CC1,0%
CC(C)COc1ccccc1C(N)CC(C)C (centres undefined),8.434%
CC1c2ncc(CN3CCN(C)CC3)n2CCN1Cc1ccc(F)cc1 (centres undefined),-6.542%
CC(C)N1CCC(N2CCC(C(=O)N(C)C)CC2)CC1,0.5587%
CC(=O)N1[C@H](Cn2cncn2)C[C@@H]2CN(C(=O)NC3CC3)CC[C@@H]21,5.473%
O=C1CC(c2ccc3c(c2)OCO3)c2cnn(C3CCCC3)c2N1 (centres undefined),2.404%
Cc1cccc(CNCc2ccc(NC(=O)NC(C)C)cc2)c1,4.274%
Cc1cc(-c2cc(F)ccc2C(=O)O)nc(C2CCCN(C)C2)n1 (centres undefined),7.778%
Cn1ncc2c1C(COCC1CC1)CN(Cc1ccsc1)C2 (centres undefined),7.477%
CCOCC1CN(Cc2csc(C)n2)Cc2nccn2C1 (centres undefined),-5.473%
Cc1cccc(CN(C)Cc2nc3c(cnn3C)c(=O)[nH]2)c1,-3.03%
CN(C)C(=O)N1CCn2c(Cn3cccn3)cnc2C1,1.97%
CCc1nccn1C1CCCN(C(=O)c2ccc(-n3ccnc3)cc2)C1 (centres undefined),1.149%
O[C@H]1CN(Cc2c[nH]nc2-c2ccccc2)CC[C@@]12CCCO2,-5.639%
CC(C)CN1C(=O)C2(CCCC2)NC1c1cn(C)c(=O)n(C)c1=O (centres undefined),8.333%
COc1ccc(CN2CCC(C(N)=O)CC2)cc1SC(F)(F)F,2.703%
COC(=O)c1c(Cl)c(C)nc2onc(C)c12,8.911%
c1cc(-c2ccc3nc(C4CCN(CC5CC5)CC4)nn3c2)cs1,5.263%
CCOCCNC(=O)[C@@H]1CCCN1c1nccc(Nc2ccccc2)n1,9.091%
Cc1c(C2SCC(=O)Nc3c2c(O)nn3C(C)C)cnn1C (centres undefined),1.22%
CC(Cn1cccn1)NCc1csc(COc2ccc(F)cc2)n1 (centres undefined),4.942%
CCN(CC)c1ccc(CNC(=O)N2CCC(C#N)CC2)cc1,18.33%
CC(C)Cc1cc(NC(=O)c2n[nH]c3ccccc23)n(C)n1,6.322%
O=C(N1CCC(Oc2ccncc2)C1)C1(c2cccc(F)c2)CC1 (centres undefined),1.093%
CC(=O)Nc1nc(C(=O)N2CCCC(n3cncn3)C2)cs1 (centres undefined),3.152%
CCO[C@@H]1CCN(C(=O)N(C)C)[C@@H]1Cc1cnn(C)c1,9.184%
CC(C)NC(=O)N1CCc2ncnc(-c3ccncc3)c2CC1,12.22%
O=C(c1cccc(F)c1)N1CCC2(CC1)CN(c1ccccn1)CCO2,5.882%
NC(=O)CSCCC(=O)NCC1CC1,9.091%
COc1c(CNC2CCC(O)CC2)c(C(C)C)nn1C (centres undefined),-0.578%
COc1cc(OC)cc(N2CCC(NCc3cccs3)C2=O)c1 (centres undefined),0%
Cn1c(C(F)(F)F)nn(CCNC(=O)Nc2ccccc2F)c1=O,5.102%
CCc1nccn1CCC(=O)N1CC[C@@H](c2ccc(F)cc2)[C@H](O)C1,9.091%
O=C1C(Nc2ccc3nccnc3n2)CCN1c1ccccc1F (centres undefined),5.882%
CCOCC1CCN(C(=O)Nc2ccc3c(c2)CCCO3)C1 (centres undefined),6.579%
O=C(NCc1cccnc1)[C@H]1CN2CCC1C[C@@H]2Cn1cc(CO)nn1 (some centres undefined),13.86%
N#Cc1ccc(C(=O)N(C2CC2)C2CC(=O)NC2=O)cc1 (centres undefined),2.463%
CCOCC1CN(Cc2cccnc2OC)Cc2cnn(C)c21 (centres undefined),7.527%
COc1ccc(C(C)CCNC2CCN(c3ccccn3)CC2)cc1 (centres undefined),13.33%
Cc1ccc2nc(C(=O)N3CCC(CCn4cccn4)CC3)cn2c1,8.861%
CCc1cccc(NC(=O)NC2CCc3nc(C)nn3C2)c1 (centres undefined),10.39%
CC1CCN(S(=O)(=O)NCc2ccccc2Cn2cncn2)CC1,3.383%
COc1ccc(-c2nc(C#N)c(N(C)C)o2)cc1OC,3.125%
Cc1ccn(CCC(=O)N2CCOC(c3nc(-c4cccs4)no3)C2)n1 (centres undefined),5.376%
NC1CCN(c2nccn3c(=O)[nH]nc23)CC1,-5.325%
CCCc1cc(=O)[nH]c2nnc(SCC(N)=O)n12,-1.02%
O=C(c1ccsc1)N1C[C@@H](CN2CCCC2)[C@@H](CO)C1,2.905%
COC(=O)c1ccc(N2CCN(CCC(=O)NC(N)=O)C(C)C2)cc1 (centres undefined),3.03%
NC(=O)[C@@H]1Cc2ccccc2CN1CCc1cccs1,5.319%
CCn1c(C2CCN(C(=O)c3cc(C4CC4)on3)CC2)nn(C)c1=O,7.921%
CCN(CC)C(=O)c1ccc(Cl)c(NC(=O)c2cnc(C)cn2)c1,4.478%
Cc1ccc(-c2cn3c(n2)CO[C@@H](CNCc2nccs2)C3)cc1,10.87%
COc1cc(F)c(CN2CC[C@@](O)(C3CC3)[C@H](C)C2)cc1OC,8.434%
c1cc(CN2CCc3nc(N4CCOCC4)nc(NC4CC4)c3C2)co1,8.602%
CS(=O)(=O)Cc1noc(CN2CCN(c3ccccc3Cl)CC2)n1,4.294%
Cc1nc(O)c2nnn(C[C@H]3CCCN3C(=O)c3cccs3)c2n1,5.319%
Cc1ccc(CN2CCC3(CC2)CC(c2cccnc2)CO3)s1 (centres undefined),2.674%
Cc1cnn(CC2CCCN2C(=O)c2sccc2-n2cnnn2)c1 (centres undefined),6.395%

6 of the entries, repeated:

Compound	percent effect
CC(=O)N1[C@H](Cn2cncn2)C[C@@H]2CN(C(=O)NC3CC3)CC[C@@H]21	5.473%
CS(=O)(=O)Cc1noc(CN2CCN(c3ccccc3Cl)CC2)n1	4.294%
COC(=O)c1c(Cl)c(C)nc2onc(C)c12	8.911%
NC(=O)[C@@H]1Cc2ccccc2CN1CCc1cccs1	5.319%
CC(C)(C)c1coc([C@@H]2COCCN2Cc2ccccc2)n1	2.488%
CCc1cccc(NC(=O)NC2CCc3nc(C)nn3C2)c1 (centres undefined)	10.39%

Data taken from ChEMBL document CHEMBL3988442, “University of Dundee, Small-Polar-MMV Screening Library” (2021).